This data set in a line: general procedure: Fmoc solid-phase peptide synthesis; Tenta Gel R RAM resin (Rapp polymers, loading 0.2 mmol/g); HBTU/DIPEA. To be noted: whole synthesis, total yield.

Take GKKYRRFRWKFKGKLFLFG-NH2: the isolated yield is on record as 16.2%.

For the origin of these results see publication PMC7760514 (Antibiotics, 2020).
